Reference: PubChem BioAssay AID1224830 (NIAID, 2016)
Aim: 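Genes whose knock-down alters the TNF-alpha reporter response to LPS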 (primary screen). System: human THP-1 monocytic leukaemia cells, TNF dual-luciferase reporter clone, PMA-differentiated to macrophage-like cells. Knock-down reagent: siRNA pool against human genes, 50 nM. Duration: LPS for 4 h, given about 3 days after siRNA transfection. Conditions: bacterial LPS (TLR4 ligand), 10 ng/ml. Detection: 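TNF firefly reporter luminescence divided by renilla, normalised to the plate median, then turned into a robust z-score for each replicate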. Scale: TNF reporter robust z-score: higher = stronger TNF reporter response to LPS. Active means: 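a well is active when its z-score exceeds 2.8 or falls below -1.5; control wells carry no call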.
The whole screen tested about 18,000 reagents; below is a random part of them. Over the whole deposit, about 2,900 (16%) got an active call. 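Calls are made per well; low scores hint the gene aids the LPS response, high scores that it dampens it.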 Repeated entries: four replicate wells of each siRNA pool.

With knock-down of CDK4, the screen gave TNF reporter robust z-score 0.08; inactive. Silencing of CDK4 gave: TNF reporter robust z-score 0.34; inactive. Depletion of CDK4 came out at: TNF reporter robust z-score -0.2; inactive. CDK4 gave TNF reporter robust z-score 0.27; inactive. CAP2 gave TNF reporter robust z-score 0.72; inactive. Silencing of CAP2 came out at: TNF reporter robust z-score 0.41; inactive.

For CAP2, the values are TNF reporter robust z-score 0.34; inactive. After knock-down of CAP2, the record shows TNF reporter robust z-score 0.44; inactive. PXK scored TNF reporter robust z-score -0.86; inactive. Depletion of PXK gave: TNF reporter robust z-score 0.56; inactive. After knock-down of PXK, the screen gave TNF reporter robust z-score -1.45; inactive. After knock-down of ADCY5 the results were TNF reporter robust z-score 2.73; inactive.

For ADCY5 the deposit lists TNF reporter robust z-score -0.1; inactive. After knock-down of ADCY5, the screen gave TNF reporter robust z-score 0.41; inactive. After knock-down of ADCY5, the screen gave TNF reporter robust z-score 0.68; inactive. With knock-down of GTF2E2, the screen gave TNF reporter robust z-score -0.7; inactive. Depletion of GTF2E2 came out at: TNF reporter robust z-score -0.03; inactive. With knock-down of GTF2E2 the results were TNF reporter robust z-score -0.45; inactive.

Against GTF2E2, the values are TNF reporter robust z-score 0.25; inactive.

Part of the list above, reformatted.
| Target gene | TNF reporter robust z-score | outcome |
| --- | --- | --- |
| CAP2 | 0.41 | inactive |
| CAP2 | 0.34 | inactive |
| CAP2 | 0.44 | inactive |
| PXK | -0.86 | inactive |
| PXK | 0.56 | inactive |
| PXK | -1.45 | inactive |
| ADCY5 | 2.73 | inactive |

The list goes on.
Against MC2R the deposit lists TNF reporter robust z-score -0.77; inactive. MC2R scored TNF reporter robust z-score -0.74; inactive. Silencing of MC2R gave: TNF reporter robust z-score -1.07; inactive. Depletion of MC2R resulted in: TNF reporter robust z-score -0.75; inactive. Silencing of PLCB3 came out at: TNF reporter robust z-score -0.12; inactive. With knock-down of PLCB3, the screen gave TNF reporter robust z-score -0.72; inactive.

Against PLCB3 the deposit lists TNF reporter robust z-score -0.79; inactive. PLCB3 scored TNF reporter robust z-score 0.15; inactive. Against NFKBIB the deposit lists TNF reporter robust z-score -1.29; inactive. For NFKBIB, the entry reads TNF reporter robust z-score -0.96; inactive. After knock-down of NFKBIB the results were TNF reporter robust z-score -0.94; inactive. NFKBIB showed TNF reporter robust z-score -0.38; inactive.

Depletion of F8A2 came out at: TNF reporter robust z-score -1.34; inactive. Depletion of F8A2 gave: TNF reporter robust z-score 0.68; inactive. F8A2 gave TNF reporter robust z-score 0.55; inactive. Knock-down of F8A2 gave: TNF reporter robust z-score -0.61; inactive. After knock-down of GUCA2B, the screen gave TNF reporter robust z-score 0.11; inactive. After knock-down of GUCA2B the results were TNF reporter robust z-score 0.29; inactive.

GUCA2B showed TNF reporter robust z-score 0.16; inactive. Depletion of GUCA2B resulted in: TNF reporter robust z-score 0.07; inactive. After knock-down of PSRC1, the screen gave TNF reporter robust z-score -0.64; inactive. PSRC1 gave TNF reporter robust z-score -0.98; inactive. Against PSRC1, the entry reads TNF reporter robust z-score -0.91; inactive. After knock-down of PSRC1 the results were TNF reporter robust z-score -0.93; inactive.

After knock-down of COQ9 the results were TNF reporter robust z-score -0.46; inactive. After knock-down of COQ9 the results were TNF reporter robust z-score -0.28; inactive. For COQ9, the values are TNF reporter robust z-score -0.19; inactive. COQ9 showed TNF reporter robust z-score 1.17; inactive.
